Test results: PubChem BioAssay AID2685 (National Center for Advancing Translational Sciences (NCATS), 2010)
Some of the results follow. Shown are side measurements of this screen, not its main read-out; they come without a call. The list favours compounds with an active or inconclusive main result. Potencies come from curve fits of mixed quality, noted in brackets.

Experiment: qHTS Assay for Lipid Storage Modulators in Drosophila S3 Cells;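 as to cell number change: cells counted by Cell Tracker Red CMTPX staining in the red channel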
Conditions: BODIPY lipid droplet fluorescence, 18-24 h; for cell number change: measured here: cell count max response, cells fed with added oleic acid
Summary of the method: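 Laser-scanning cytometry quantifies lipid droplet accumulation (500–530 nm total intensity; droplet/cell object ratio) in oleic acid-fed (400 uM added) Drosophila S3 cells treated with a concentration series. 20 uM Triacsin C defined 100% inhibition.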

[1] = measured here: lipid fluorescence (Fed channel) AC50, cells fed with added oleic acid
[2] = measured here: cell number channel AC50, cells fed with added oleic acid

Compound	cell number change	AC50 [1]	AC50 [2]
O=S(=O)(c1ccc(Br)s1)N1CCN(CCc2ccccc2)CC1	-19.3%	9.2 µM [falling, partial curve, poor fit]	
CCC(OC(=O)CNS(=O)(=O)c1ccccc1)C(=O)c1ccccc1 (stereo not drawn)	-13.1%	6.51 µM [rising, single point]	
NC(=S)N/N=C/c1coc2cc(Br)ccc2c1=O	-5.42%	0.13 µM [falling, full curve, poor fit]	1.64 µM [falling, partial curve, poor fit]
O=C(Nc1ccccc1Cl)NC1(C(=O)NCc2cccnc2)CCCCC1	17.2%	6.51 µM [rising, single point]	
CC(=O)N/N=C(\C)c1cccc(C(F)(F)F)c1	-28.1%	18.4 µM [falling, single point]	
O=C(CSc1ccccn1)Nc1ccc2c(c1)oc1ccccc12	22.9%	0.82 µM [rising, full curve, poor fit]	
CC(C)CC(NC(=O)C(NC(=O)C1CCC(=O)N1C(=O)OCc1ccccc1)C(C)C)C(=O)N1CCCC1C(N)=O (stereo not drawn)	-4.2%		
Cc1cc(C)c2nc(Nc3nc(-c4ccccc4)cc(=O)[nH]3)nc(C)c2c1	-14.3%	20.6 µM [falling, single point]	
O=C(CCCn1c(=O)c2cccn2c2cccnc21)NCc1cccc(Br)c1	29.7%		
COc1ccccc1C(=O)Nc1ccccc1SC		20.6 µM [rising, partial curve]	
Cc1ccc(S(=O)(=O)N2CCN(CN3C(=O)CC4(CCCC4)C3=O)CC2)cc1	25%	2.31 µM [rising, full curve, poor fit]	
CCOC(=O)c1ccc(N2CCCCC2)c(NS(=O)(=O)c2ccc(C)cc2)c1	7.83%	0.082 µM [rising, full curve, poor fit]	
NC(=S)NNc1ccc(Cl)c(Cl)c1	-7.07%		
O=C(Nc1ccc2c(c1)OCO2)C1CCCN(S(=O)(=O)Cc2ccccc2)C1 (stereo not drawn)	55.8%		1.46 µM [rising, partial curve]
Cc1nn(C2CCS(=O)(=O)C2)c(C)c1CN(C)C(=O)c1ccccc1 (stereo not drawn)	40.2%	25.9 µM [rising, partial curve]	20.6 µM [rising, single point]
Cc1ccc(S(=O)(=O)N2CCN(C3CC4CCC3C4)CC2)cc1 (stereo not drawn)	-2.78%		
COc1cc(C(C)=O)ccc1OC(C)C(=O)Nc1ccc(S(=O)(=O)N2CCCC2)cc1 (stereo not drawn)	20.9%	0.00517 µM [rising, full curve, poor fit]	
COc1cc(NC(=O)c2ccc(Br)o2)ccc1NC(=O)c1ccccc1Cl	-34.4%		23.1 µM [falling, partial curve, poor fit]
CCn1c(C(=O)N2CCCC(C(=O)NCCc3ccc(C)cc3)C2)cc2sccc21 (stereo not drawn)	-18.4%		
Cc1ccc(CN2CCN(/N=C/c3ccc(O)c(O)c3)CC2)cc1	16.1%	20.6 µM [rising, partial curve]	

Compound	cell number change	AC50 [1]	AC50 [2]
CCCCN(CC)C(=O)CSc1nc2ccccc2c(=O)n1CC1COc2ccccc2O1 (stereo not drawn)	24.4%	29.1 µM [rising, single point]	
Cc1ccc(NC(=O)Nc2ccccc2C(N)=O)cc1	12.3%	0.00651 µM [falling, full curve, poor fit]	
CCCn1c(=O)c2ccccc2n2c(SCCOc3ccc(Cl)cc3)nnc12	-3.13%	0.259 µM [rising, full curve, poor fit]	
O=C(Nc1c(-c2ccc(F)cc2)nc2ccccn12)c1ccc(F)cc1	21.5%	3.66 µM [rising, partial curve, poor fit]	
C=CCn1c(=S)[nH]c2cc(C(=O)Nc3ccc(OC)c(OC)c3)ccc2c1=O	38.5%		32.6 µM [rising, single point]
Cc1nc(-c2ccc(C(=O)N3CCOCC3)cc2)cs1	-16.8%		0.146 µM [falling, full curve, poor fit]
O=C(O)C1CCN(S(=O)(=O)Cc2ccccc2)CC1	-9.8%		
COC(=O)CCCCCCCCC(O)CN(C)C (stereo not drawn)	24.7%		
CCN1CCN(S(=O)(=O)c2ccc(Cl)c(C(=O)N(C)Cc3cccs3)c2)CC1	2.24%	2.59 µM [falling, single point]	
COc1cccc(C(CC(=O)NCc2ccco2)NS(=O)(=O)c2ccc(C)cc2)c1OC (stereo not drawn)	90.8%		25.9 µM [rising, partial curve]
Cc1cc(NC(=O)c2cc(-c3ccccc3C)nc3ccccc23)no1	20.9%	8.2 µM [rising, partial curve]	
Cn1c(COc2ccccc2)nnc1SCC(=O)Nc1ccc(N2CCOCC2)cc1	-1.28%	5.8 µM [rising, single point]	
Cc1ccc(OCCOC(=O)C2CCN(S(=O)(=O)c3ccc(C)c(C)c3)CC2)cc1	50%		16.4 µM [rising, single point]
COc1ccc2nc(C)cc(Nc3ccc(N4CCN(C)CC4)cc3)c2c1	-32%	2.06 µM [falling, partial curve]	14.6 µM [falling, partial curve, poor fit]
COc1ccccc1C(CNC(=O)c1cccc(S(=O)(=O)Nc2ccc(F)cc2)c1)N(C)C (stereo not drawn)	-15.3%	1.64 µM [rising, partial curve]	
O=C(N/C(=C/c1ccco1)C(=O)N1CCOCC1)c1ccc([N+](=O)[O-])cc1	2.21%		
O=C(COC(=O)CNC(=O)c1ccccc1)NCCNC(=O)COC(=O)CNC(=O)c1ccccc1	-46.1%		14.6 µM [falling, single point]
O=C(CCNS(=O)(=O)c1ccc(Br)cc1)NCC1CCCO1 (stereo not drawn)	8.33%	11.6 µM [falling, partial curve, poor fit]	
Cc1ccc2cccc(OCC(=O)N(C)CC(=O)Nc3ccc(F)cc3)c2n1	6.14%	20.6 µM [falling, single point]	
Cn1c(SCC(=O)Nc2ccccc2[N+](=O)[O-])nnc1C(F)(F)F	2.87%		

Two of these compounds in a different format.

| Compound | cell number change | AC50 [1] | AC50 [2] |
| --- | --- | --- | --- |
| O=C(O)C1CCN(S(=O)(=O)Cc2ccccc2)CC1 | -9.8% |  |  |
| COC(=O)CCCCCCCCC(O)CN(C)C (stereo not drawn) | 24.7% |  |  |
